The RNAGym collection of RNA variant scans (doi:10.1126/science.aae0568)
Variants at the floor of the assay are shown more often than the library holds them.

B1: tRNA (parent)
chain: GUUCCGUUGGCGUAAUGGUAACGCGUCUCCCUCCUAAGGAGAAGACUGCGGGUUCGAGUCCCGUACGGAACG

Variants of: B1
Test: yeast fitness relative to wild type (ratio to wild type); higher = fitter; tRNA-Arg(CCU), competitive growth, 37 C, YPD
How it was run: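 Amplicons of the tRNA-Arg(CCU) gene were sequenced, 100-nucleotide paired-end, from the start population and from each end population of a pooled yeast competition. The competition, in six parallel replicates, lasted 24 hours in YPD at 37°C. Fitness relative to wild type was calculated from changes in genotype frequencies. Genotypes had to have ≥ 100 starting reads, and estimates < 0.5 were set to 0.5.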

**Q.** For GUUCGGUUGGCGUAAUGGUAACGCGUCUCCCUGCUAAGGAGAAGACUGCGGGUUCGAGUACCGUACCGAACG [C5G C33G C60A G67C], which yeast fitness is on record?
**A.** The yeast fitness was ≤ 0.5.

**Q.** With GUUCGGUUGGCGUAAUGGUAACGCGUCUCCCUUUUAAAGAGAAGACUGCGAGUUAGAGUCCCGUUCGGAACG [C5G C33U C34U G38A G51A C55A A65U] as the variant, how does the yeast fitness read?
**A.** Its yeast fitness is ≤ 0.5.

**Q.** For GUUCGGUUGGCGUAAUGGUAACGCGUCUCCCUCAUAAGGAGAAGACUGUGGGUUCGAGUAACGUACGGAACG [C5G C34A C49U C60A C61A], which yeast fitness is on record?
**A.** Its yeast fitness is ≤ 0.5.

**Q.** For GUUCGGUUGGCGUAAUGGUAACGCGUCUCCCUCUUAGGGAGAAGACUGCGGGUUCGAGUCCGGUACGGAACG [C5G C34U A37G C62G], which yeast fitness is on record?
**A.** The yeast fitness was ≤ 0.5.

**Q.** Which yeast fitness does the source give for GUUCGGUUGGCGUAAUGGUAACGCGUCUCCCUCCUAAGGAGAAGACUGAGGGUUCGAGUCCCAUACGGAACG [C5G C49A G63A] here?
**A.** The yeast fitness was ≤ 0.5.

**Q.** For GUUCGGUUGGCGUAAUGGUAACGCGUCUCCCUCCUAAGGAGAAGACUGGGAGUUCGAGUCCCGUACGGAACG [C5G C49G G51A], which yeast fitness is on record?
**A.** The yeast fitness was ≤ 0.5.

**Q.** Which yeast fitness does the source give for GUUCGGUUAGGGUAAUGGGAACGCGUCUCCGUCCUAAGGAGAUGACUGCGGGUUCGAGUCCCGUACGGAGCG [C5G G9A C11G U19G C31G A43U A70G] here?
**A.** The yeast fitness was ≤ 0.5.

**Q.** With GUUCGGUUAGCGUAAUGGUAACGCGUGUCCCUCCUAAGGAGAAGACUGCGGGUUCGAGUCUCGUAUGGAACG [C5G G9A C27G C61U C66U] as the variant, how does the yeast fitness read?
**A.** The yeast fitness was ≤ 0.5.

**Q.** Which yeast fitness does the source give for GUUCGGUUCGCGUAAUGGUAACGCGUCUCCCUCCUAAGGAGAAGACUGCGGGUUCGAGUGCCGUACGGUACG [C5G G9C C60G A69U] here?
**A.** The yeast fitness was ≤ 0.5.

**Q.** For GUUCGGUUCGCGUAAUGGUAACGCGUCUCCCUCCUAAGGAGAAGACUACGGGUUCGUGUCCCGUACGGUACG [C5G G9C G48A A57U A69U], which yeast fitness is on record?
**A.** The yeast fitness was ≤ 0.5.

**Q.** Which yeast fitness does the source give for GUUCGGUUCGCGUAAUGGUAACGCGUCUCCCUCCUAAGGAGAAGACUGCGGGAUCGAAUCCCGUACGUAACG [C5G G9C U53A G58A G68U] here?
**A.** Its yeast fitness is ≤ 0.5.

**Q.** With GUUCGGUUGCCGUAAUGGUAACGCGUCUCCCUCCUAAGGAGAAGACUGCGGGUUCGAGUCACGUACGGAACG [C5G G10C C61A] as the variant, how does the yeast fitness read?
**A.** Its yeast fitness is ≤ 0.5.

**Q.** For GUUCGGUUGCCGUAAUGGUAACGCAUCUCCCUCCUAAGGAGAAGACUGCGAGUUCGAGUCCCGUACGGAACG [C5G G10C G25A G51A], which yeast fitness is on record?
**A.** Its yeast fitness is ≤ 0.5.

**Q.** Which yeast fitness does the source give for GUUCGGUUGGCAUAAUGGUAACGCGUCACCCUCCUAAGGAGAAGACUGCGGGUUCGAGUCCCGUGCGGAACG [C5G G12A U28A A65G] here?
**A.** Its yeast fitness is 0.703.

**Q.** With GUUCGGUUGGCCUAAUGGUUACGGGUCUCCCUCCUAAGGAGAAGACUGCGGGUUCGAGUCCCGUACGGAACG [C5G G12C A20U C24G] as the variant, how does the yeast fitness read?
**A.** The yeast fitness was ≤ 0.5.

**Q.** Which yeast fitness does the source give for GUUCGGUUGGCCUAAUGGUUACGGGUCUCCCUCCUAAGGAGAAGACUGUGGGUUAGAGUCCCGUACGGAACG [C5G G12C A20U C24G C49U C55A] here?
**A.** The yeast fitness was ≤ 0.5.

**Q.** Which yeast fitness does the source give for GUUCGGUUGGCGUAAUGGUAACCCGUCUCCCUCCUCAGGAGAAGACUGCGGGUUCGAGUCCCGUACGGAACG [C5G G23C A36C] here?
**A.** The yeast fitness was ≤ 0.5.

**Q.** With GUUCGGUUGGCGUAAUGGUAACGCAUCUCCCUCCUAAGGAGAAGACUGCGGGGUCGAGUCCCGUACGGAACG [C5G G25A U53G] as the variant, how does the yeast fitness read?
**A.** Its yeast fitness is ≤ 0.5.

**Q.** Which yeast fitness does the source give for GUUCGGUUGGCGUAAUGGUAACGCGUCUCCCUCCUAAGGAGAAGACUCCGGGUUAGAGUCCCGUACGGAACG [C5G G48C C55A] here?
**A.** Its yeast fitness is ≤ 0.5.

**Q.** For GUUCGGUUGGCGUAAUGGUAACGCGUCUCCCUCCUAAGGAGAAGACUGCGGCUUCAAGUCCCGUACGGAACG [C5G G52C G56A], which yeast fitness is on record?
**A.** Its yeast fitness is ≤ 0.5.

**Q.** With GUUCGGGUGGCGUAAUGGUAACGCGUCUCCCUCCUAAGGAGAAGACUGCGGGUUCGAGUCGCGUAGGGAACG [C5G U7G C61G C66G] as the variant, how does the yeast fitness read?
**A.** Its yeast fitness is ≤ 0.5.

**Q.** Which yeast fitness does the source give for GUUCGGGUGGCGAAAUGGUAACGCGUCUCACUCCUAAGGAGACGACUGCGGGCUCGAGUCUCGUACGGUACG [C5G U7G U13A C30A A43C U53C C61U A69U] here?
**A.** Its yeast fitness is ≤ 0.5.

**Q.** For GUUCGGUAGGCGUAAUGGUCAGGCGUCUCCCUCCUAAGGAGAAGACUGCGAGUUCGAGUCGCGUACGGAACG [C5G U8A A20C C22G G51A C61G], which yeast fitness is on record?
**A.** The yeast fitness was ≤ 0.5.

**Q.** With GUUCGGUCGGCGUAAUGGUAACGCGUCUCCCUCCUAAGGAAAAGACUGCGGGUUCGAGUCCCGUACGGAACG [C5G U8C G41A] as the variant, how does the yeast fitness read?
**A.** Its yeast fitness is ≤ 0.5.

**Q.** With GUUCGGUGGGCGUAAUGGUAACGCGUCUCCCUCCUAAGGAGAAGACUGCGGGUUCGAGUCCCGUACGUAACG [C5G U8G G68U] as the variant, how does the yeast fitness read?
**A.** Its yeast fitness is ≤ 0.5.

**Q.** Which yeast fitness does the source give for GUUCGGUUGGCGAAAUGGUAACGCGUCUCCCUCCUAAGGAGAAGCCUGCGGGUUCGAGUCCCGUAUGGAACG [C5G U13A A45C C66U] here?
**A.** Its yeast fitness is ≤ 0.5.

**Q.** For GUUCGGUUGGCGCAAUGGUAACGCGUCUCCUUCCUAAGGAGGAGAGUGCGGGUUCGAGUCCCCUACGGAACG [C5G U13C C31U A42G C46G G63C], which yeast fitness is on record?
**A.** Its yeast fitness is ≤ 0.5.

**Q.** With GUUCGGUUGGCGCAAUGGUAACGCGUCUCCCUCCUAAGGAGAAGACUGCGGGUUCGAGUCCAGUACGGAACG [C5G U13C C62A] as the variant, how does the yeast fitness read?
**A.** Its yeast fitness is ≤ 0.5.

**Q.** Which yeast fitness does the source give for GUUCGGUUGGCGCAAUGGUAACGCGUCUCCCACCUAAGGAGAAGACUGCGGGUUCGAGUCCCGUACGGAACG [C5G U13C U32A] here?
**A.** The yeast fitness was ≤ 0.5.

**Q.** With GUUCGGUUGGCGGAAUGGUUACGCGUCUCCCUCCUAGGGAGAAGACUGCGAGUUCGAGUCGCGUACGGAACG [C5G U13G A20U A37G G51A C61G] as the variant, how does the yeast fitness read?
**A.** The yeast fitness was ≤ 0.5.

**Q.** Which yeast fitness does the source give for GUUCGGUUGGCGGAAUGGUAACGCGUCUUCCUCCUAAGGGGAAGACUGCGGGUUCGAGUCCCGAACGGAACG [C5G U13G C29U A40G U64A] here?
**A.** Its yeast fitness is ≤ 0.5.

**Q.** For GUUCGGUUGGCGUAAAGGUAACGCGUCUCCCUCCUAAGGAGAAGACUACGGGUCCGAGUCCCGGACGGAACG [C5G U16A G48A U54C U64G], which yeast fitness is on record?
**A.** The yeast fitness was ≤ 0.5.

**Q.** For GUUCGGUUGGCGUAAUGGAAACGCGUCUCCGUCCUAAGGAGAAGACUGGGGGUUCGAGUCCCGUACGGAACG [C5G U19A C31G C49G], which yeast fitness is on record?
**A.** The yeast fitness was ≤ 0.5.

**Q.** Which yeast fitness does the source give for GUUCGGUUGGCGUAAUGGCAACGCGUCUCCCUCCAAAGGAGACGACUGCGGGUUCGAGUCCCGUACGGAACG [C5G U19C U35A A43C] here?
**A.** The yeast fitness was ≤ 0.5.

**Q.** Which yeast fitness does the source give for GUUCGGUUGGCGUAAUGGGAAUGCGUCUCCCCCCUAAGGAGAAGACUGCGGGUUCGAGUCCCGUCUGGAACG [C5G U19G C22U U32C A65C C66U] here?
**A.** Its yeast fitness is ≤ 0.5.

**Q.** Which yeast fitness does the source give for GUUCGGUUGGCGUAAUGGGAAUGCGUCUCCCCCCUAAGGAGAAGACUGCGGGUUCGACUCCUGUACGGAACG [C5G U19G C22U U32C G58C C62U] here?
**A.** The yeast fitness was ≤ 0.5.

**Q.** With GUUCGGUUGGCGUAAUGGUAACGCGUCACCCUCCUAAGGAGAAGACUGCGGGUUGGAGUCCCGUACGGAACG [C5G U28A C55G] as the variant, how does the yeast fitness read?
**A.** Its yeast fitness is ≤ 0.5.
